System: E. coli BL21(DE3) cells
Assay: ICP-MS distribution of iridium in subcellular fractions
Type: cell-based
Conditions: 0.1 μM Ir(Me)MPIX

Structure (SMILES): CCC1=C(C)c2cc3[n-]c(cc4[n-]c(cc5nc(cc1n2)C(C)=C5CC)c(C)c4CCC(=O)O)c(CCC(=O)O)c3C.[CH3-].[Ir+3] [Ir(Me)MPIX]
- iridium located in the cytoplasm (cells harboring CYP119, expressing no transporter): 10%
- iridium located in the cytoplasm (cells harboring CYP119 and expressing the HUG transport system): 65%

Reference: patent US12129493B2, “Host cells and methods useful for producing unnatural terpenoids using a novel artificial metalloenzyme” (The Regents of the University of California, priority 2020, dated 2024)
